Where “and” joins values, the source holds several entries; their conditions need not be identical. Equal entries are not always repeated. Structures were worked out from names or drawings and are uncertain.
Biological target: AuroraA-TPX2 (Homo sapiens, UniProt O14965)
Assay: AuroraA-TPX2 Homogeneous Time Resolved Fluorescent (HTRF) kinase assay
Settings: read-out: AurA_IC50_IP (uM Avg); average

The chains behind the UniProt entries cited, without tags or fusion partners. Residues count along the entry.
UniProt O14965, 133-383 limits assumed: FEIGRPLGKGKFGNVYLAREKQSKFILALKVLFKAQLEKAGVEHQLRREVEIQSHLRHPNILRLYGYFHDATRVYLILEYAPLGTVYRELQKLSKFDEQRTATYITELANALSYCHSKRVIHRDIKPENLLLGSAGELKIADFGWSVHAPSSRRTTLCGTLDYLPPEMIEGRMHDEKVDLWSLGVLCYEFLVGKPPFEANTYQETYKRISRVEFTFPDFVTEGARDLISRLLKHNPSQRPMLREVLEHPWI
UniProt Q9ULW0, 1-43 partner limits assumed: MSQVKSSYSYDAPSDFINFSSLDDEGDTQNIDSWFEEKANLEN

| IC50 | SMILES |
| --- | --- |
| 0.126 µM and 0.116 µM | Cc1ccc(-c2nnc(Nc3ccc(Oc4ccnc5ccccc45)cc3)c3ccccc23)cc1N |
| 0.018 µM and 0.017 µM | COc1cnc2c(Sc3ccc(Nc4nnc(N5CCN6CCCCC[C@@H]6C5)c5ccccc45)cc3)ccnc2c1 |

From patent US8557816B2, “Aurora kinase modulators and method of use” (Amgen Inc., priority 2007, dated 2013)
